In US11241412B2 (priority 2015, dated 2022):

Conditions: aqueous solution in commercially available concentrations

In the case of CCN(CC)CC(=O)Nc1c(C)cccc1C [Lidocaine], the “time required for systemic absorption” value is reported as 2 to 4 h.
